From PMC12767015
These are yes or no findings as the source states them, for the method shown. In cells and extracts the contact can be indirect. These calls come from enrichment with a bait or labelling near it, and not all partners need be listed. Tags and fused reporters may be left off the sequences shown.

By UniProt entry, the sequences of proteins in these tests, tags left out.
UniProt Q99729: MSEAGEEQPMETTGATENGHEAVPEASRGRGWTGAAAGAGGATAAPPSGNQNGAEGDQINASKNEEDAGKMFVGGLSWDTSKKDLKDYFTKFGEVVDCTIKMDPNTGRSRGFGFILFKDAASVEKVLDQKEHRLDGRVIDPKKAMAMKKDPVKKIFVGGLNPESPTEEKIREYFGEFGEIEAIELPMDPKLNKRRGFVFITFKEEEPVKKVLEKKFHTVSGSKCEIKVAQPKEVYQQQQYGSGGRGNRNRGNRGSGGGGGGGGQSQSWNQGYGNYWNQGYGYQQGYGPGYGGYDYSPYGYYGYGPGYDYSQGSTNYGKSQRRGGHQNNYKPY
UniProt Q14258: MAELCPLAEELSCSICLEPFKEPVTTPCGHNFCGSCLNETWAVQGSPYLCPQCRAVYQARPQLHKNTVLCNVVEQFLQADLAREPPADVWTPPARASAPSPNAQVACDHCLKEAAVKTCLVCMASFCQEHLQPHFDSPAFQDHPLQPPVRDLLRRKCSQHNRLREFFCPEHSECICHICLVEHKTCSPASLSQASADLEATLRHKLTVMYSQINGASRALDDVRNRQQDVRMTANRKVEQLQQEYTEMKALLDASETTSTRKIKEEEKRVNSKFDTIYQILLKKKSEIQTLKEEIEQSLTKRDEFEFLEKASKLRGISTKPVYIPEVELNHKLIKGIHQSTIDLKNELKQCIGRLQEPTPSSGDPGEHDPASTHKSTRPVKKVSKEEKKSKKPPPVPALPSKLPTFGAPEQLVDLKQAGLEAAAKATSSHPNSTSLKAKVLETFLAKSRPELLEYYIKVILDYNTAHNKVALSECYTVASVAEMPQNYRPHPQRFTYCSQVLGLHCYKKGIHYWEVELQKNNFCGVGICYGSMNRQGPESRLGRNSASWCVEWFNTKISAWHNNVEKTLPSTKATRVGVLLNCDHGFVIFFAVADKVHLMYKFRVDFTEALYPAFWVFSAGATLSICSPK

B1: MKRN2 found with FLAG-hnRNPAB in 293T cells (enzyme, UniProt Q9H000 1-416)
chain: MSTKQITCRYFMHGVCREGSQCLFSHDLANSKPSTICKYYQKGYCAYGTRCRYDHTRPSAAAGGAVGTMAHSVPSPAFHSPHPPSEVTASIVKTNSHEPGKREKRTLVLRDRNLSGMAERKTQPSMVSNPGSCSDPQPSPEMKPHSYLDAIRSGLDDVEASSSYSNEQQLCPYAAAGECRFGDACVYLHGEVCEICRLQVLHPFDPEQRKAHEKICMLTFEHEMEKAFAFQASQDKVCSICMEVILEKASASERRFGILSNCNHTYCLSCIRQWRCAKQFENPIIKSCPECRVISEFVIPSVYWVEDQNKKNELIEAFKQGMGKKACKYFEQGKGTCPFGSKCLYRHAYPDGRLAEPEKPRKQLSSQGTVRFFNSVRLWDFIENRESRHVPNNEDVDMTELGDLFMHLSGVESSEP

Target: FLAG-tagged wild-type hnRNPAB (heterogeneous nuclear ribonucleoprotein A/B), full-length (human) (UniProt Q99729)
Assay: affinity purification with mass spectrometry; lysates of 293T cells expressing FLAG-tagged hnRNPAB, IP with anti-FLAG antibody crosslinked to protein A/G magnetic beads, overnight at 4 °C, eluate analysed by LC-MS

Molecule	binding
TRIM25 (tripartite motif-containing protein 25) found with FLAG-hnRNPAB in 293T cells (from UniProt Q14258 1-630) (enzyme)	binds
B1	binds
